{
  "source": "patent US20240390334A1",
  "about": "“COMPOSITIONS AND METHODS FOR MITIGATING ALCOHOL LIVER DISEASE” (Research Foundation of the City University of New York, priority 2021, published 2024)",
  "system": "genes involved in de novo lipogenesis and fatty acid β-oxidation",
  "experiment": "RNA-seq of hepatic transcripts of lipid metabolism genes in liquid ethanol diet model",
  "type": "in vivo, mouse (male C57BL/6J)",
  "text": "Liquid Ethanol Diet. Male C57BL/6J mice (8-9-weeks-old) (n=30) were purchased from Jackson Laboratory. Animals were housed in standard cages with 2-mice per cage and fed a standard vivarium chow (rodent diet #2014, Harlan-Teklad, Madison, WI). After acclimation to liquid feeding, mice were switched to the Lieber-DeCarli-liquid alcohol diet for 3 weeks using the following groups: 1) Control diet-fed mice (aka Pair-fed (PF), n=6), 2) Pair-fed mice+RARβ2 specific agonist AC261066 (Tocris #4046), at 10 mg/kg/day [Pair-fed+AC261, (n=4)] (PF-AC), 3) Alcohol-treated (5% ethanol (EtOH) v/v plus vehicle [0.1% DMSO], n=10) (EtOH), and iv) 4) EtOH+AC261, [10 mg/kg/day], n=10)] (EtOH-AC).\nThe mechanism by which AC261066 functions in lipid metabolism, including de novo lipogenesis and fatty acid β-oxidation in the liver, was assessed.",
  "data": [
    {"molecule": "CCCCOCCOc1nc(-c2ccc(C(=O)O)c(F)c2)sc1C", "note": "[AC261066]", "values": [
      {"measurement": "hepatic mRNA level of CPT1-α", "setting": "Pair-fed condition", "value": "increase"},
      {"measurement": "hepatic mRNA levels of lipid metabolism genes, except CPT1-α", "setting": "Pair-fed mice with vs without AC261066", "value": "did not significantly alter"}
    ]}
  ]
}
